This data set in a line: Set-off migration test (targeted analysis of acrylates migrating from printed stacks into ethanol). As to conditions: 3-layer stack (white, cyan, OPV) on aluminium, UV cured; 40°C for 10 days; EU model.

With “Propoxylated Glycerol Triacrylate [PO3-GPTA]”, the “Migration results of the targeted analysis, Stack made of PO3-GPTA containing materials” value was 230 ppb and the “Migration results of the targeted analysis, Stack made of PO6-TMPTA containing materials” value was below 10 ppb.
For the substance “Propoxylated Glycerol Triacrylate [PO9-GPTA]”, the “Migration results of the targeted analysis, Stack made of PO9-GPTA containing materials” value was below 10 ppb.
